According to article PMC7480081:

Legend:
[1] = biological target: T1, Csa3b (Sulfolobus islandicus REY15A) (UniProt F0NH47); test: LSPR; conditions: protein immobilized; LSPR (OpenSPR, COOH chip, 20 uL/min, 5 min, 1:1 fit; running buffer not stated); recombinant protein
T1 sequence (looked up, limits assumed): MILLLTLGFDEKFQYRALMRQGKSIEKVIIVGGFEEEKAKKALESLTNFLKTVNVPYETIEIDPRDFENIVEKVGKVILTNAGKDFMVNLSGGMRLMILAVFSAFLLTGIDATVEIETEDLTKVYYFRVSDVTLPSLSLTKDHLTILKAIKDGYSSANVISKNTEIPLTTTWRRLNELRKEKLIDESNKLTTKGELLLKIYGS

[2] = biological target: T2, Csa3bM (CARF mutant) T6A,R16A,N89A,R95A (Sulfolobus islandicus REY15A) (UniProt F0NH47); test: LSPR; conditions: protein immobilized; LSPR (OpenSPR, COOH chip, 20 uL/min, 5 min, 1:1 fit; running buffer not stated); recombinant protein
T2 sequence (looked up, limits assumed): T1 sequence (looked up, limits assumed) with T6A, R16A, N89A, R95A

“CAAAA [5'-CAAAA-3' (cOA analog, called CA4 in figures)]” gave a Kd [1] of 46.1 µM and a Kd [2] of 123 µM.

Positions count from the first letter of the chain named. The exact form of at least one protein or probe is not confirmed. Where a protein sequence is shown, tags need not be part of it.
